Results on 1 substance are retold here after PMC8195427.

The chains behind the UniProt entries cited, without tags or fusion partners. Where a name states a change or a piece, a line headed by the entry shows the natural chain unless it says otherwise.
UniProt Q9SND4: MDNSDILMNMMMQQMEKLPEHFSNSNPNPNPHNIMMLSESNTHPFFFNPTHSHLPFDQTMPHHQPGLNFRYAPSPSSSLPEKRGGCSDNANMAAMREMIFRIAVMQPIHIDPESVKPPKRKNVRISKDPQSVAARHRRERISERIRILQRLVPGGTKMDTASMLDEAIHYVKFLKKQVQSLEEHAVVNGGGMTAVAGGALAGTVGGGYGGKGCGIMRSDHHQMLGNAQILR

The assay addresses T1, PHYTOCHROME … FACTOR 4 (PIF4), two-hybrid bait in pGBT9 (Arabidopsis thaliana) (UniProt Q8W2F3).
T1 sequence: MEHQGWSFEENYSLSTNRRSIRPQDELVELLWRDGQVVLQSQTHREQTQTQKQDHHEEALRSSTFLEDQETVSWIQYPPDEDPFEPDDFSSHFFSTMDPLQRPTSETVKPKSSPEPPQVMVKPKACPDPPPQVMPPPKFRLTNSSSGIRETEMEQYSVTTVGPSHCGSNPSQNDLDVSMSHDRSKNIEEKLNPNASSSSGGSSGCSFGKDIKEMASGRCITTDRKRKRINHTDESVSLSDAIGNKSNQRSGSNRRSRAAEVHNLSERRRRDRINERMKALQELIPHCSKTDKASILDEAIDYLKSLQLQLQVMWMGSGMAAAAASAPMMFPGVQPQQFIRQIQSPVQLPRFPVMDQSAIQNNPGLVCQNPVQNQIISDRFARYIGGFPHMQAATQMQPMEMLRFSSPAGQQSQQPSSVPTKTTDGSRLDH
Briefly: two-hybrid; PIF4 as bait in pGBT9, HEC2 or mHEC2 as preys in pGADT7; yeast strain Y187, selected on -Leu, -Trp medium; beta-galactosidase assay.

No constants are given. Whether binding was seen depends on the method and setting.

For “dimerization-defective mutant HEC2 (mHEC2), two-hybrid prey in pGADT7 (from UniProt Q9SND4)”, the binding result is given as “no binding”.
